# Assay results as given in publication PMC10177021.
# By UniProt entry, the sequences of proteins in these tests, tags left out. Where a name states a change or a piece, a line headed by the entry shows the natural chain unless it says otherwise. Residues count along the entry.
# UniProt P97772, residues 21-1199: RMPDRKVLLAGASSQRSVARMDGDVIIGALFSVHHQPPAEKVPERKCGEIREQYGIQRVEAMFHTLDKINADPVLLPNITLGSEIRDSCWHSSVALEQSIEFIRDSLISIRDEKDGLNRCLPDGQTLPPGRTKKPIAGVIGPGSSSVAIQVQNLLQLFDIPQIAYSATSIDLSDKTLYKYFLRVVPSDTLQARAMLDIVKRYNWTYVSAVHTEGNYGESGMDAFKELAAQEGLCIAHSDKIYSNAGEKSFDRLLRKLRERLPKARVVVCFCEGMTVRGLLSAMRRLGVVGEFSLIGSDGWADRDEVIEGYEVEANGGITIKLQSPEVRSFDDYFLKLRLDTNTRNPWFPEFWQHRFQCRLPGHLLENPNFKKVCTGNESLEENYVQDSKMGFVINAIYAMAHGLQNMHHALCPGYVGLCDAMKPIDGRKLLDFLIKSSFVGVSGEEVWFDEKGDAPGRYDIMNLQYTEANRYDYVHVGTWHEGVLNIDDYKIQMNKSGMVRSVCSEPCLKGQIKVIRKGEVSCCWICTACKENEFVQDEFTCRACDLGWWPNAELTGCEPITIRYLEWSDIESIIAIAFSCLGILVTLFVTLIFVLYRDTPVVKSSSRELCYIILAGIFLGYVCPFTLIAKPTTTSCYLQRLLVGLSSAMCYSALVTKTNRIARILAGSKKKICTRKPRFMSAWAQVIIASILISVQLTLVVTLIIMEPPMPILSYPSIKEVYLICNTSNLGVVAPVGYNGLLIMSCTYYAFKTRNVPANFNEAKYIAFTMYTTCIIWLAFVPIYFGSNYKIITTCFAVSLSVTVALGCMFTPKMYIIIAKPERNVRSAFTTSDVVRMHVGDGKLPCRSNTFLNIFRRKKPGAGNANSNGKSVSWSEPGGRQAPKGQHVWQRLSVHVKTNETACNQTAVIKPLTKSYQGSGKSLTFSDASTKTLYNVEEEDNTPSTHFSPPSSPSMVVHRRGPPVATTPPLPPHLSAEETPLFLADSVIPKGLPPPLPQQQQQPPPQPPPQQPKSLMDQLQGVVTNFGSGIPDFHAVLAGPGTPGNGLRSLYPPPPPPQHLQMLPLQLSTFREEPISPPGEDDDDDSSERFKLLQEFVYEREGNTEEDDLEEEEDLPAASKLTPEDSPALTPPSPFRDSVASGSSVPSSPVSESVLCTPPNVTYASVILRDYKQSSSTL
# UniProt Q3UVX5, residues 19-1203: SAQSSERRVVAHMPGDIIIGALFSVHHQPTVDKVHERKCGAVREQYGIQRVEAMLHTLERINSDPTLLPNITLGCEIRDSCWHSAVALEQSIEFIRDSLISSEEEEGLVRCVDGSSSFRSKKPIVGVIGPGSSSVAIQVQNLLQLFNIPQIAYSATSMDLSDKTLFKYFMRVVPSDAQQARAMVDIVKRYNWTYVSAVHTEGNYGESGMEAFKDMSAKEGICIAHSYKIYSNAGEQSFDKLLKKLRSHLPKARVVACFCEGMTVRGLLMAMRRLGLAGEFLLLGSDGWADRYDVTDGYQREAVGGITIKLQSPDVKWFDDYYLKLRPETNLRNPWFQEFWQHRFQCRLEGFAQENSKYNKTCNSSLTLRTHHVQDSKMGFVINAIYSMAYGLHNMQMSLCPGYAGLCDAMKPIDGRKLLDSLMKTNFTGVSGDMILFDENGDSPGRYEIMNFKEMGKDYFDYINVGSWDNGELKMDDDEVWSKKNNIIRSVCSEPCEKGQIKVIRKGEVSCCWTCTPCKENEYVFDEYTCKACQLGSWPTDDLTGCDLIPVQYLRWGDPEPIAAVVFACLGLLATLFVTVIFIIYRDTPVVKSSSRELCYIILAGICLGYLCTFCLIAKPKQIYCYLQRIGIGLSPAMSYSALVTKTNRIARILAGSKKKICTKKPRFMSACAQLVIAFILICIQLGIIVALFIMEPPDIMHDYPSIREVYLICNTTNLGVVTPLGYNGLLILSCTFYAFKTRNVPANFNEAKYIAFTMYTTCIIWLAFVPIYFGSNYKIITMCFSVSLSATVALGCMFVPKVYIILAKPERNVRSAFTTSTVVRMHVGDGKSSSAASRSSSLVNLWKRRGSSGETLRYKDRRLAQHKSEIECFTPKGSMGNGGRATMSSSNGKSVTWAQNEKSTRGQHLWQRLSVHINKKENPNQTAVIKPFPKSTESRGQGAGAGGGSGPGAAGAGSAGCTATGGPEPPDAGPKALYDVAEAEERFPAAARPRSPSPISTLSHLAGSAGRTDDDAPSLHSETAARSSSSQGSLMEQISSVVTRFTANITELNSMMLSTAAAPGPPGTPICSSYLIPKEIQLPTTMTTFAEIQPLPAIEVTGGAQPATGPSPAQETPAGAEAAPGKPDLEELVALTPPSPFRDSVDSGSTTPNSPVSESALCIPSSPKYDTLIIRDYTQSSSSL
# UniProt P28652: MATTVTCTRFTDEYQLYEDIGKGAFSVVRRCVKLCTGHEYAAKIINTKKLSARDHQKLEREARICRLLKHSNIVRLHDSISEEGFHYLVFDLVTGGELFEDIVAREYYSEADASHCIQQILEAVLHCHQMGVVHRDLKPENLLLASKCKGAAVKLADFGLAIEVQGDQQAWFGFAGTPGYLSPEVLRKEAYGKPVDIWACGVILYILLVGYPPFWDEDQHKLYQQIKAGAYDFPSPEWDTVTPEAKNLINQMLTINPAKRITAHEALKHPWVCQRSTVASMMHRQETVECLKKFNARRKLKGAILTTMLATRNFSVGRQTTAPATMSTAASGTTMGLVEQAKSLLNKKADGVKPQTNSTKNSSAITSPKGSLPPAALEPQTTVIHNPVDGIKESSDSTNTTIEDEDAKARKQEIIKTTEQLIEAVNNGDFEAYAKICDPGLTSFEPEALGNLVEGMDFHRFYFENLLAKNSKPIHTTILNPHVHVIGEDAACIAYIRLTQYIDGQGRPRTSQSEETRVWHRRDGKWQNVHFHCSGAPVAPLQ
# UniProt P46097: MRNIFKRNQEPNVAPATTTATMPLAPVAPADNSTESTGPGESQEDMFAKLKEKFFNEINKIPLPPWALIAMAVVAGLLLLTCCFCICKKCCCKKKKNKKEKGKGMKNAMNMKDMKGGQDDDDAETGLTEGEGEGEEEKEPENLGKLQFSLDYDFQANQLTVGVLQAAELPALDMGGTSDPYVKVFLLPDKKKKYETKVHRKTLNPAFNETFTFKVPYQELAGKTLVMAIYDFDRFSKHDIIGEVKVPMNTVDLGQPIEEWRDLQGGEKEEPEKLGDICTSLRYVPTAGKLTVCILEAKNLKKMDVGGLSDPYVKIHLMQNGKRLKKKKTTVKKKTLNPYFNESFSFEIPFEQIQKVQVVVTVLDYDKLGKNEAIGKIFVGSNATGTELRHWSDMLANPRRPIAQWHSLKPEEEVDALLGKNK
# UniProt P97445: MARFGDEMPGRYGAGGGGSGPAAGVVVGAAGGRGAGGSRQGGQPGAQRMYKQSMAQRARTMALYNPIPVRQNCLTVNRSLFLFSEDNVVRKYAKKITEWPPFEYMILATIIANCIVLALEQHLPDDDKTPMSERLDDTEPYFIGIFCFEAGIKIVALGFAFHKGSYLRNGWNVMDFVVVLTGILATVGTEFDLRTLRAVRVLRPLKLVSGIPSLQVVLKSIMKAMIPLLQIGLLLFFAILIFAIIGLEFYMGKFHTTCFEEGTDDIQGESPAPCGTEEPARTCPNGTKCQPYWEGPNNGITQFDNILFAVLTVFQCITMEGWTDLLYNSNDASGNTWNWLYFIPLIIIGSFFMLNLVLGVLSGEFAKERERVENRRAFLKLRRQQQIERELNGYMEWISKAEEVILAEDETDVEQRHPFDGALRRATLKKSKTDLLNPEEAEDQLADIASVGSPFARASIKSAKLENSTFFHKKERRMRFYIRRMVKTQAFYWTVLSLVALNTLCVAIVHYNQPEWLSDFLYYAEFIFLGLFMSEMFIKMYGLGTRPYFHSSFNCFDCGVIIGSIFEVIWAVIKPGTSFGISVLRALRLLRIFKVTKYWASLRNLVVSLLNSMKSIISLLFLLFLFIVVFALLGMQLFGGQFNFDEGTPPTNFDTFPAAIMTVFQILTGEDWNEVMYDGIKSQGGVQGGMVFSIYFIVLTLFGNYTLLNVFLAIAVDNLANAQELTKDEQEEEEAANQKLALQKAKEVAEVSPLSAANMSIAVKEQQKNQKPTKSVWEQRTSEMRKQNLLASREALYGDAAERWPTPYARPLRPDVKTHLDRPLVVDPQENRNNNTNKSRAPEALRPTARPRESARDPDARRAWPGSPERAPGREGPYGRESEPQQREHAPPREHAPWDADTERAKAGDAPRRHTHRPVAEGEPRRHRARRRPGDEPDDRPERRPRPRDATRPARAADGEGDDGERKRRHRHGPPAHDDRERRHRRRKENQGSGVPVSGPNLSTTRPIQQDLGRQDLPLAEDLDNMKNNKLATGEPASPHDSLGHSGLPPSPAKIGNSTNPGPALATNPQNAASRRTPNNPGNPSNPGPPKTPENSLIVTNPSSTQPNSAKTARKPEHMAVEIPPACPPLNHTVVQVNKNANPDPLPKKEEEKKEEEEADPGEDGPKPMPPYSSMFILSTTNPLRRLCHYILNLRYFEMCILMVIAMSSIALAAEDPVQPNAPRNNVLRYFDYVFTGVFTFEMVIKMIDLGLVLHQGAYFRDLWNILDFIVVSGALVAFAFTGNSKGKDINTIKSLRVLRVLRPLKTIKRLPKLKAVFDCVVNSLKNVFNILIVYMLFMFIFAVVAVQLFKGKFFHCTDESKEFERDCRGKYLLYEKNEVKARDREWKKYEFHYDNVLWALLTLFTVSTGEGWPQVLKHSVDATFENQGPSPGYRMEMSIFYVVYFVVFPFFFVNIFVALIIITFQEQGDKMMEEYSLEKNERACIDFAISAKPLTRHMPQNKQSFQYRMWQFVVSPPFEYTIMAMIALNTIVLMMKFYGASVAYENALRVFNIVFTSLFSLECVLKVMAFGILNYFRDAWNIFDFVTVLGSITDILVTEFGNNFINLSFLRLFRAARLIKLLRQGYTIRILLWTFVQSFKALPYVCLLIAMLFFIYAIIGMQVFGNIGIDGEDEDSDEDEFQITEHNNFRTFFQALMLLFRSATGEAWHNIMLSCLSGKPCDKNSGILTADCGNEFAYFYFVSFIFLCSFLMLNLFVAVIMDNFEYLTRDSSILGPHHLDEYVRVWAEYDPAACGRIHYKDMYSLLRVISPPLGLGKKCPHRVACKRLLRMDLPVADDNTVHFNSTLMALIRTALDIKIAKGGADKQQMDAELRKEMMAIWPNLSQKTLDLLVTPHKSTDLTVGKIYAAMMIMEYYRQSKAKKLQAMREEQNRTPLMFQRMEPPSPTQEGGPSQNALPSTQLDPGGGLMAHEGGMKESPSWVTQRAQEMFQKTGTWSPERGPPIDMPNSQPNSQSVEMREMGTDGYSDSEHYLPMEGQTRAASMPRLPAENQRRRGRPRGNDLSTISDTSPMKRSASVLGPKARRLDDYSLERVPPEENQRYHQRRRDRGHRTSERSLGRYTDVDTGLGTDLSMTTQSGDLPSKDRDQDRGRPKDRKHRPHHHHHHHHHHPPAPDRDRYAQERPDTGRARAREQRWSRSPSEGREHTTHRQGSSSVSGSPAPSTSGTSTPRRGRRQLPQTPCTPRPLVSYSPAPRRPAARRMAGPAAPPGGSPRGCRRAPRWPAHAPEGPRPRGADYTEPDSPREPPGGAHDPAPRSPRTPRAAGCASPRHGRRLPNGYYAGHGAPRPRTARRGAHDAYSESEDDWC
# B1: homer protein homolog 3 (protein, UniProt Q99JP6-2 1-359)
# chain: MSTAREQPIFSTRAHVFQIDPTTKRNWIPAGKHALTVSYFYDATRNVYRIISIGGAKAIINSTVTPNMTFTKTSQKFGQWADSRANTVYGLGFASEQQLTQFAEKFQEVKEAARLAREKSQDGGEFTSTGLALASHQVPPSPLVSTNGPGEEKLFRSQSADTPGPTERERLKKMLSEGSVGEVQWEAEFFALQDSNQRLAGALREANAAATQWRQQLEVQRAEAELLRQRVAELEAQVAVEPVRAGEKEATSQSVEQLEARVQTKDQEIQTLKNQSTGTREAPDTAEREETQQQVQDLETRNAELEQQLRSMECNLEEARAERERARAEVGRAAQLLDVRLFELSELREGLARLAEAAP
# B2: 14-3-3 protein γ (protein, UniProt P61982 1-247)
# chain: MVDREQLVQKARLAEQAERYDDMAAAMKNVTELNEPLSNEERNLLSVAYKNVVGARRSSWRVISSIEQKTSADGNEKKIEMVRAYREKIEKELEAVCQDVLSLLDNYLIKNCSETQYESKVFYLKMKGDYYRYLAEVATGEKRATVVESSEKAYSEAHEISKEHMQPTHPIRLGLALNYSVFYYEIQNAPEQACHLAKTAFDDAIAELDTLNEDSYKDSTLIMQLLRDNLTLWTSDQQDDDGGEGNN
# B3: 2′,3′-cyclic-nucleotide 3′-phosphodiesterase (enzyme, UniProt P16330-2 1-400)
# chain: MSSSGAKEKPELQFPFLQDEDTVATLHECKTLFILRGLPGSGKSTLARLILEKYHDGTKMVSADAYKIIPGSRADFSEAYKRLDEDLAGYCRRDIRVLVLDDTNHERERLDQLFEMADQYQYQVVLVEPKTAWRLDCAQLKEKNQWQLSADDLKKLKPGLEKDFLPLYFGWFLTKKSSETLRKAGQVFLEELGNHKAFKKELRHFISGDEPKEKLELVSYFGKRPPGVLHCTTKFCDYGKAAGAEEYAQQEVVKRSYGKAFKLSISALFVTPKTAGAQVVLTDQELQLWPSDLDKPSASEGLPPGSRAHVTLGCAADVQPVQTGLDLLDILQQVKGGSQGEAVGELPRGKLYSLGKGRWMLSLTKKMEVKAIFTGYYGKGKPVPIHGSRKGGAMQICTII
# B4: ADP/ATP translocase 1 (protein, UniProt P48962 1-298)
# chain: MGDQALSFLKDFLAGGIAAAVSKTAVAPIERVKLLLQVQHASKQISAEKQYKGIIDCVVRIPKEQGFLSFWRGNLANVIRYFPTQALNFAFKDKYKQIFLGGVDRHKQFWRYFAGNLASGGAAGATSLCFVYPLDFARTRLAADVGKGSSQREFNGLGDCLTKIFKSDGLKGLYQGFSVSVQGIIIYRAAYFGVYDTAKGMLPDPKNVHIIVSWMIAQSVTAVAGLVSYPFDTVRRRMMMQSGRKGADIMYTGTLDCWRKIAKDEGANAFFKGAWSNVLRGMGGAFVLVLYDEIKKYV
# B5: ATP synthase subunit γ, mitochondrial (protein, UniProt Q91VR2 26-298)
# chain: ATLKDITRRLKSIKNIQKITKSMKMVAAAKYARAERELKPARVYGTGSLALYEKADIKAPEDKKKHLIIGVSSDRGLCGAIHSSVAKQMKNEVAALTAAGKEVMIVGVGEKIKGILYRTHSDQFLVSFKDVGRKPPTFGDASVIALELLNSGYEFDEGSIIFNQFKSVISYKTEEKPIFSLNTIATAETMSIYDDIDADVLQNYQEYNLANLIYYSLKESTTSEQSARMTAMDNASKNASDMIDKLTLTFNRTRQAVITKELIEIISGAAALD
# B6: excitatory amino acid transporter 4 (protein, UniProt O35544 1-561)
# chain: MSSHGNSLFLRESGAGGGCLQGLQDSLQQRALRTRLRLQTMTREHVRRFLRRNAFILLTVSAVIIGVSLAFALRPYQLSYRQIKYFSFPGELLMRMLQMLVLPLIVSSLVTGMASLDNKATGRMGMRAAVYYMVTTVIAVFIGILMVTIIHPGKGSKEGLHREGRIETVPTADAFMDLVRNMFPPNLVEACFKQFKTQYSTRVVTRTIVRTDNGSELGASMSPTSSVENETSILENVTRALGTLQEVISFEETVPVPGSANGINALGLVVFSVAFGLVIGGMKHKGRVLRDFFDSLNEAIMRLVGIIIWYAPVGILFLIAGKILEMEDMAVLGGQLGMYTLTVIVGLFLHAGGVLPLIYFLVTHRNPFPFIGGMLQALITAMGTSSSSATLPITFRCLEEGLGVDRRITRFVLPVGATVNMDGTALYEALAAIFIAQVNNYELNLGQITTISITATAASVGAAGIPQAGLVTMVIVLTSVGLPTEDITLIIAVDWFLDRLRTMTNVLGDSIGAAVIEHLSQRELELQEAELTLPSLGKPYKSLMAQEKGASRGRGGNESVM
# B7: phosphate carrier protein, mitochondrial (protein, UniProt Q8VEM8 46-357)
# chain: AVEEYSCEFGSMKYYALCGFGGVLSCGLTHTAVVPLDLVKCRMQVDPQKYKGIFNGFSITLKEDGVRGLAKGWAPTLIGYSMQGLCKFGFYEVFKALYSNILGEENTYLWRTSLYLASSASAEFFADIALAPMEAAKVRIQTQPGYANTLREAVPKMYKEEGLNAFYKGVAPLWMRQIPYTMMKFACFERTVEALYKFVVPKPRSECTKAEQLVVTFVAGYIAGVFCAIVSHPADSVVSVLNKEKGSTASQVLQRLGFRGVWKGLFARIIMIGTLTALQWFIYDSVKVYFRLPRPPPPEMPESLKKKLGLTE
# B8: glutamate receptor ionotropic, δ-2 (receptor, UniProt Q61625 24-1007)
# chain: DSIIHIGAIFDESAKKDDEVFRTAVGDLNQNEEILQTEKITFSVTFVDGNNPFQAVQEACELMNQGILALVSSIGCTSAGSLQSLADAMHIPHLFIQRSTAGTPRSGCGLTRSNRNDDYTLSVRPPVYLNEVILRVVTEYAWQKFIIFYDSEYDIRGIQEFLDKVSQQGMDVALQKVENNINKMITTLFDTMRIEELNRYRDTLRRAILVMNPATAKSFISEVVETNLVAFDCHWIIINEEINDVDVQELVRRSIGRLTIIRQTFPVPQNISQRCFRGNHRISSSLCDPKDPFAQNMEISNLYIYDTVLLLANAFHKKLEDRKWHSMASLSCIRKNSKPWQGGRSMLETIKKGGVNGLTGDLEFGENGGNPNVHFEILGTNYGEELGRGVRKLGCWNPVTGLNGSLTDKKLENNMRGVVLRVVTVLEEPFVMVSENVLGKPKKYQGFSIDVLDALSNYLGFNYEIYVAPDHKYGSPQEDGTWNGLVGELVFKRADIGISALTITPDRENVVDFTTRYMDYSVGVLLRRAEKTVDMFACLAPFDLSLWACIAGTVLLVGLLVYLLNWLNPPRLQMGSMTSTTLYNSMWFVYGSFVQQGGEVPYTTLATRMMMGAWWLFALIVISSYTANLAAFLTITRIESSIQSLQDLSKQTDIPYGTVLDSAVYQHVRMKGLNPFERDSMYSQMWRMINRSNGSENNVLESQAGIQKVKYGNYAFVWDAAVLEYVAINDPDCSFYTVGNTVADRGYGIALQHGSPYRDVFSQRILELQQSGDMDILKHKWWPKNGQCDLYSSVDAKQKGGALDIKSLAGVFCILAAGIVLSCLIAVLETWWSRRKGSRVPSKEDDKEIDLEHLHRRVNSLCTDDDSPHKQFSTSSIDLTPLDIDTLPTRQALEQISDFRNTHITTTTFIPEQIQTLSRTLSAKAASGFAFGSVPEHRTGPFRHRAPNGGFFRSPIKTMSSIPYQPTPTLGLNLGNDPDRGTSI
# Target: metabotropic glutamate receptor 1, mGlu1α variant (mouse (endogenous in cerebellum)) (UniProt P97772)
# Assay: affinity purification with mass spectrometry; mGlu1α immunoprecipitated with Af811-1 (three replicates) or Af660-1 (three replicates) and Dynabeads Protein-A from detergent lysates (0.5% deoxycholate, 1% NP-40, 0.1% SDS) of the mouse cerebellar P2 fraction; LC-MS/MS of eluates; proteins also found from Grm1-KO lysates removed
row,binding,Molecule
1,binds,metabotropic glutamate receptor 5 (from UniProt Q3UVX5 19-1203)
2,binds,protein kinase C γ type (from UniProt P63318 1-697) (enzyme)
3,binds,calcium/calmodulin-dependent protein kinase type II subunit β (from UniProt P28652 1-542) (enzyme)
4,binds,synaptotagmin-2 (from UniProt P46097 1-422)
5,binds,sodium/potassium-transporting ATPase subunit α-2 (from UniProt Q6PIE5 1-1020)
6,binds,"inositol 1,4,5-trisphosphate receptor type 1 (from UniProt P11881-1 1-2749)"
7,binds,CaV2.1 calcium channels (from UniProt P97445 1-2368)
8,binds,B1
9,binds,B2
10,binds,B3
11,binds,B4
12,binds,B5
13,binds,B6
14,binds,B7
15,binds,B8

# No constants are given. Whether binding was seen depends on the method and setting. Binding seen in cells or lysates may run through a third protein. Here binding means that the protein was enriched with, or labelled near, the bait; the list need not be complete.
